Counter-ions that a name gives are not always drawn.
Tested on: EpiAlveolar™ model
Assay: Bioactivity exposure ratio (BER): lowest in vitro PoD of EpiAlveolar readouts / lower respiratory tract exposure estimate or Cmax
Set-up: species or system human

| SMILES | minimum BER (therapeutic dose scenario, transcriptomics PoDs) | BER (therapeutic dose high-risk scenario, all readouts, all days) |
| --- | --- | --- |
| CCCCc1oc2ccccc2c1C(=O)c1cc(I)c(OCCN(CC)CC)c(I)c1 [Amiodarone, Amiodarone hydrochloride] | 0.004 | – |
| COc1cccc2c1C(=O)c1c(O)c3c(c(O)c1C2=O)C[C@@](O)(C(=O)CO)C[C@@H]3O[C@H]1C[C@H](N)[C@H](O)[C@H](C)O1 [Doxorubicin, Doxorubicin hydrochloride] | – | 0.0005–0.2 |
